These results are taken from PMC6904755.

No constants are given. Whether binding was seen depends on the method and setting. A result given as binding can be weak or reduced; the word gives no strength.

Assay [1] addresses T1, Drosophila Gemin3, full-length (wild type) (Drosophila) (UniProt Q9V3C4).
T1 sequence: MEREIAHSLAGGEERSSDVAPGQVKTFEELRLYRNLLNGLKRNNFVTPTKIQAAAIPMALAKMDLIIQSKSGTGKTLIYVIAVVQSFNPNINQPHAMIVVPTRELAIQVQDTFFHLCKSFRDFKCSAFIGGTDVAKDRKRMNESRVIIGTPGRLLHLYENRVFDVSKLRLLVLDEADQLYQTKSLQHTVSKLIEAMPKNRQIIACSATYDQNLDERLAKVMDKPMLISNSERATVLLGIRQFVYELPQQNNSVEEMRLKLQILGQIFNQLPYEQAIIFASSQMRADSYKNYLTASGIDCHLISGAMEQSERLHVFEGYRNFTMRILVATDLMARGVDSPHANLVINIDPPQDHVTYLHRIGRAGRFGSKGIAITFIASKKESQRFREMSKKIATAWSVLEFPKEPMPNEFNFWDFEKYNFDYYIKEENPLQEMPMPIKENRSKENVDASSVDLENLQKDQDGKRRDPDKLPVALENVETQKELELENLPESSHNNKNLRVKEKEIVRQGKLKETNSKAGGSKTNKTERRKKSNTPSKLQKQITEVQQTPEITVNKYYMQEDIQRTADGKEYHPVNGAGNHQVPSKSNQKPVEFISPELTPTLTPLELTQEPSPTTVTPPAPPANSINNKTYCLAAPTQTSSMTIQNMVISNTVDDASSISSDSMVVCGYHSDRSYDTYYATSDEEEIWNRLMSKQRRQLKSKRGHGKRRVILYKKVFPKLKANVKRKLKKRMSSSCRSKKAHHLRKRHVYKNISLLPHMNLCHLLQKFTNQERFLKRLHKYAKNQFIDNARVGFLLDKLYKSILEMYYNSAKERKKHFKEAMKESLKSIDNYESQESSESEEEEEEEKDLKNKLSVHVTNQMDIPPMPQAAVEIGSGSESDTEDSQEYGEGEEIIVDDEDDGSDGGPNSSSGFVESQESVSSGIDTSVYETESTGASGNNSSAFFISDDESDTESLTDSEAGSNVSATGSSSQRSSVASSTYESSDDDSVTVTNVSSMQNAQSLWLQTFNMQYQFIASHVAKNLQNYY
The experiment in a line: two-hybrid; serial dilutions spotted on –Leu–Trp–His plates in the presence of 20 mM 3-AT (methods say 30 mM), 28 °C for 3 to 5 days.

In assay [2] the target is T1, Drosophila Gemin3, full-length (wild type) (Drosophila). In words: two-hybrid; GAL4-BD baits (pASΔΔ, strain CG1945) mated with GAL4-AD preys (pACT2st, strain Y187); β-galactosidase activity of the GAL1-LacZ reporter measured from extracts of cells grown in –Trp–Leu medium.

On to “Gem3^ΔN, helicase domain deletion mutant of Drosophila Gemin3 (domain or fragment)”, for which the binding entry in assay [1] and in assay [2] was “binds” in each case.
